Data reported in paper PMC12258416.
No constants are given. Whether binding was seen depends on the method and setting.

Chains of the proteins cited; added tags and fusions are not shown. Residues count along the entry.
UniProt O60603, residues 636-784: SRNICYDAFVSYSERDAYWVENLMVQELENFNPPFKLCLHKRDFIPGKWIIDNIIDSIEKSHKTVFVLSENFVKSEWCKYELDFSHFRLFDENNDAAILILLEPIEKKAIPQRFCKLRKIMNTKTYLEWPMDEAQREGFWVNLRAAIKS

Experiments:
[1] = target: T1, TIR domain of human TLR1 (TLR1TIR) (human) (UniProt Q15399); experiment: NMR titration; 1H,15N-HSQC with Zn: equimolar mix of TLR1TIR and TLR2TIR (100 uM each) titrated with 50 and 100 uM zinc; and 100 uM TLR1TIR:Zn titrated with TLR2TIR up to 1:1; both purified
T1 sequence: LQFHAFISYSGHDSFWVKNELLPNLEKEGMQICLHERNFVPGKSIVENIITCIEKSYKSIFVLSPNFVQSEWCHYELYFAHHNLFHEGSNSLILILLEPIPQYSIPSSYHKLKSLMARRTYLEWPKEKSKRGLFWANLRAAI

[2] = target: T1, TIR domain of human TLR1 (TLR1TIR) (human); experiment: NMR titration; 1H,15N-HSQC of an equimolar mix of TLR1TIR and TLR2TIR (100 uM each) without Zn, compared with each protein alone; 30 mM MOPS, 64.4 mM KCl, 5.3 mM NaCl, 0.5 mM MgCl2, 1 mM TCEP, pH 7.4, 303 K; both purified

binding [1]: no binding (tested: 100 μM each) | binding [2]: no binding (tested: 100 μM each)
Substance: TIR domain of TLR2 (TLR2TIR), wild type, 636-784 fragment of human TLR2 (from UniProt O60603 636-784) (domain or fragment)
